Measurements taken from the supplement of paper PMC10849652.
The list shows a part of the results.

Chains of the proteins cited; added tags and fusions are not shown. Lines headed by an entry give the natural chain unless they say otherwise; changes in a name come on top.
UniProt P28072: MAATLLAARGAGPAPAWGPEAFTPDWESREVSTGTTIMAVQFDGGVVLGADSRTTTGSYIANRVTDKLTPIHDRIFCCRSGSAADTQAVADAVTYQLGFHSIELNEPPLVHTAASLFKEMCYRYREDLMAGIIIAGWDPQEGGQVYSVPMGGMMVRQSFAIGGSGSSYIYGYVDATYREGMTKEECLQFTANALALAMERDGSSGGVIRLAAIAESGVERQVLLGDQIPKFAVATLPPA
UniProt Q9UHX1: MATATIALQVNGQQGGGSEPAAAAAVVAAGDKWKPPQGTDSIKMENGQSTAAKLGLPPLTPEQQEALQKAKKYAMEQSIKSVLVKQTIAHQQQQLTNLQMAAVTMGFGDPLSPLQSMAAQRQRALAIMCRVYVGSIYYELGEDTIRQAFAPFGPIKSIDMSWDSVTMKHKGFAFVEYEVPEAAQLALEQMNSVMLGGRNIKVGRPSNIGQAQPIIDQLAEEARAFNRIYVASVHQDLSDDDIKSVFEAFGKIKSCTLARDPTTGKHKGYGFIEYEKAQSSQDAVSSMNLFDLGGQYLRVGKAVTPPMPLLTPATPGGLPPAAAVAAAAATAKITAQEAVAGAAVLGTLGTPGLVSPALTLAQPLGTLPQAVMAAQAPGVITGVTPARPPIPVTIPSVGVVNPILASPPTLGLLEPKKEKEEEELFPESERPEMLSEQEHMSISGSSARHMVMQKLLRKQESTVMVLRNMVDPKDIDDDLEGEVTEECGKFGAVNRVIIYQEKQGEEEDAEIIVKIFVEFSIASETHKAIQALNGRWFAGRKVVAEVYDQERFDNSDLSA
UniProt P60484: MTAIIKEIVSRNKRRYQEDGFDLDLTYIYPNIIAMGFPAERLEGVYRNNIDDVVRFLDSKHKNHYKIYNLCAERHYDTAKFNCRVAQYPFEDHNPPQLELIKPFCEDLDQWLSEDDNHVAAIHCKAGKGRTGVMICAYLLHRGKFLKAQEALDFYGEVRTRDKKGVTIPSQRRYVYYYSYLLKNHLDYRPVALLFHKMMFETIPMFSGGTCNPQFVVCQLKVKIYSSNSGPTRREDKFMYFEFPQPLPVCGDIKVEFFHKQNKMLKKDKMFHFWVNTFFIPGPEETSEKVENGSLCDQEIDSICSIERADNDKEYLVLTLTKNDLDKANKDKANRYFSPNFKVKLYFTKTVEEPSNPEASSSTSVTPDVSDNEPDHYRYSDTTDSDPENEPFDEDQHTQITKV
UniProt P28070, whole entry, looked up: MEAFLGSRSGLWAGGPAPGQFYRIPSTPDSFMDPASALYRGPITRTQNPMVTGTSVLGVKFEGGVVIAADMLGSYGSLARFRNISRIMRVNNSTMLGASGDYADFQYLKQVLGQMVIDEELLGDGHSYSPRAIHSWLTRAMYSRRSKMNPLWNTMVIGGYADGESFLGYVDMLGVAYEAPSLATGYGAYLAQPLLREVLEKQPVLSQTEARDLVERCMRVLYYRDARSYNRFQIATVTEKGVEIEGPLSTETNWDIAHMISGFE
UniProt Q9Y606: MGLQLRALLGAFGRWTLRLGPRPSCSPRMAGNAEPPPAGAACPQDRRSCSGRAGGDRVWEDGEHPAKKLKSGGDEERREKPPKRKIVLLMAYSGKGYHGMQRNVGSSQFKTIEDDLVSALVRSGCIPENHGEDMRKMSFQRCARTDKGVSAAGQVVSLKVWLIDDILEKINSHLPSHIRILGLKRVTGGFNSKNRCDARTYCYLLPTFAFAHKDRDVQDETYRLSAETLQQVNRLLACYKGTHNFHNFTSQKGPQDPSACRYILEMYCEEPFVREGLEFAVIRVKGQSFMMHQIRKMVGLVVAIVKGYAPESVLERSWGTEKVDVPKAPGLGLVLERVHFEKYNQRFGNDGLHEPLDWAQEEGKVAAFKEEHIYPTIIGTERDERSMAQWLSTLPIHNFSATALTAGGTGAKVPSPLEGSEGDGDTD
UniProt Q03393: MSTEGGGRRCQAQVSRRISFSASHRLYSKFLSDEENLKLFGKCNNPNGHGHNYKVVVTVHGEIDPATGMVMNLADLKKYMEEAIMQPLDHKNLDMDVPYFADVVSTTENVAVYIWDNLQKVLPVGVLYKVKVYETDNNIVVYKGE
UniProt O75832: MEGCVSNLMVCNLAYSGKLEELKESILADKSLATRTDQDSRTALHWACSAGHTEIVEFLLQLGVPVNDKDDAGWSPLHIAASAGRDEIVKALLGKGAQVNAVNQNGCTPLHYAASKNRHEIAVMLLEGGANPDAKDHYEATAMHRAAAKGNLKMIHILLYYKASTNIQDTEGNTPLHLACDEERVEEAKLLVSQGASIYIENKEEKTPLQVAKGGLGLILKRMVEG

How the values were obtained:
Assay in all cases: log2 fold change, soluble protein after heating vs DMSO (PISA); higher = thermal stabilisation; K562 lysate, 10 uM; active = over 0.2 and 3.5 SD of the protein, either way, in both replicates (recomputed)
nilotinib = compound: Cc1cn(-c2cc(NC(=O)c3ccc(C)c(Nc4nccc(-c5cccnc5)n4)c3)cc(C(F)(F)F)c2)cn1 [nilotinib]
In short: (§1)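 Following dounce homogenisation of K562 pellets in PBS pH 7.4 with 1 mM MgCl2, crude extract at 1 mg/mL protein was incubated for 30 min with 10 μM compound. Aliquots were then heated for 3 min over 48°C-58°C and pooled, NP-40 was added to 0.5% at 4°C, and soluble protein was recovered as the supernatant at 21,000xg for 90 min. Channel-sum-equalised TMTpro 16plex LC-MS/MS quantified this protein. Each value, from duplicates, is a log-two fold change in thermal stability relative to solvent controls.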

[1] = compound: Cc1nc(Nc2n[nH]c3c2CN(C(=O)N[C@H](CN(C)C)c2ccccc2)C3(C)C)c2sccc2n1
In short: as §1

dasatinib = compound: Cc1nc(Nc2ncc(C(=O)Nc3c(C)cccc3Cl)s2)cc(N2CCN(CCO)CC2)n1 [dasatinib]
In short: as §1

[2] = compound: Cc1ncc(-c2ccnc(Nc3ccc(S(C)(=O)=O)cc3)n2)n1C(C)C
In short: as §1

[3] = compound: Cn1cc(-c2ccc3c(c2)CCN3C(=O)Cc2cccc(C(F)(F)F)c2)c2c(N)ncnc21
In short: as §1

quisinostat = compound: Cn1cc(CNCC2CCN(c3ncc(C(=O)NO)cn3)CC2)c2ccccc21 [quisinostat]
In short: as §1

tipifarnib = compound: Cn1cncc1[C@@](N)(c1ccc(Cl)cc1)c1ccc2c(c1)c(-c1cccc(Cl)c1)cc(=O)n2C [tipifarnib]
In short: as §1

[4] = compound: NC(=O)Nc1cc(-c2cccc(F)c2)sc1C(=O)N[C@H]1CCCNC1
In short: as §1

[5] = compound: NC(=O)c1cnc(N[C@@H]2CCCC[C@@H]2N)nc1Nc1cccc(-n2nccn2)c1
In short: as §1

[6] = compound: NC1(c2ccc(-c3nc4ccn5c(=O)[nH]nc5c4cc3-c3ccccc3)cc2)CCC1
In short: as §1

[7] = compound: NCC(=O)Nc1ccc(-n2nc(C(F)(F)F)cc2-c2ccc3c(ccc4ccccc43)c2)cc1
In short: as §1

vorinostat = compound: O=C(CCCCCCC(=O)Nc1ccccc1)NO [vorinostat]
In short: as §1

silmitasertib = compound: O=C(O)c1ccc2c(c1)nc(Nc1cccc(Cl)c1)c1ccncc12 [silmitasertib]
In short: as §1

[8] = compound: O=C1NC(=O)C(c2cnc3ccccn23)=C1c1cn2c3c(cc(F)cc13)CN(C(=O)N1CCCCC1)CC2
In short: as §1

entospletinib = compound: c1cn2cc(-c3ccc4cn[nH]c4c3)nc(Nc3ccc(N4CCOCC4)cc3)c2n1 [entospletinib]
In short: as §1

Measured: log2 fold change

PSMB6 (UniProt P28072)
inactive: nilotinib 0.024 | [1] 0.019 | dasatinib 0.055 | [2] 0.005 | [3] 0.032 | quisinostat -0.029 | tipifarnib 0.022 | [4] -0.016 | [5] 0.026 | [6] -0.029 | [7] 0.017 | vorinostat 0.136 | silmitasertib -0.008 | [8] -0.025 | entospletinib -0.001

PUF60 isoform 2 (UniProt Q9UHX1)
inactive: nilotinib -0.011 | [1] -0.027 | [2] 0.05 | quisinostat 0.013 | tipifarnib 0.023 | [4] 0.017 | [5] -0.016 | [6] -0.184 | [7] -0.061 | vorinostat 0.23 | silmitasertib 0.075 | [8] 0.026 | entospletinib 0.027

PWP1 (UniProt Q13610)
inactive: nilotinib -0.016 | [1] 0.009 | dasatinib 0.065 | [2] 0.005 | [3] 0.048 | quisinostat 0.068 | tipifarnib 0.017 | [4] -0.005 | [5] -0.003 | [6] 0.036 | [7] -0.082 | vorinostat 0.139 | silmitasertib -0.033 | [8] 0.022 | entospletinib -0.003

PTEN isoform 2 (UniProt P60484)
inactive: nilotinib 0.026 | [1] -0.022 | dasatinib -0.121 | [2] -0.029 | [3] 0.026 | quisinostat -0.13 | tipifarnib -0.002 | [4] -0.029 | [5] -0.058 | [6] -0.073 | vorinostat -0.106 | silmitasertib 0.027 | [8] 0.008 | entospletinib -0.085

PSMB4 (UniProt P28070)
inactive: nilotinib 0.019 | [1] 0 | dasatinib -0.005 | [2] 0.038 | [3] -0.007 | quisinostat -0.031 | tipifarnib -0.001 | [4] -0.001 | [5] -0.028 | [6] -0.029 | [7] 0.003 | vorinostat 0.144 | silmitasertib 0.002 | [8] 0.015 | entospletinib 0.002

PUS1 (UniProt Q9Y606)
active: vorinostat -0.321
inactive: nilotinib 0.005 | [1] -0.042 | dasatinib -0.01 | [2] 0.01 | [3] 0.018 | quisinostat -0.058 | tipifarnib 0.018 | [4] 0.043 | [5] 0.036 | [6] -0.023 | [7] 0.04 | silmitasertib 0.041 | [8] -0.013 | entospletinib -0.022

PTS (UniProt Q03393)
inactive: nilotinib 0.172 | [1] 0.024 | dasatinib 0 | [2] -0.018 | [3] 0.082 | quisinostat -0.083 | tipifarnib 0.112 | [4] 0.126 | [5] 0.006 | [6] -0.077 | [7] 0.053 | vorinostat 0.006 | silmitasertib 0.009 | [8] -0.151 | entospletinib 0.032

PSMD10 (UniProt O75832)
inactive: nilotinib 0.018 | [1] -0.033 | dasatinib -0.023 | [2] -0.001 | [3] -0.067 | quisinostat 0.015 | tipifarnib 0.002 | [4] 0.027 | [5] -0.017 | [6] -0.035 | [7] -0.035 | vorinostat 0.03 | silmitasertib -0.032 | [8] 0.032 | entospletinib 0.003

PTDSS1 (UniProt P48651)
inactive: nilotinib -0.038 | [1] 0.012 | dasatinib -0.078 | [2] 0.049 | [3] -0.051 | quisinostat -0.09 | tipifarnib 0.096 | [4] 0.12 | [5] 0.047 | [6] -0.092 | [7] 0.022 | vorinostat 0.045 | silmitasertib 0.029 | [8] -0.061 | entospletinib -0.042

2 successive records from above, for reference:
PTS (UniProt Q03393)
inactive: nilotinib 0.172 | [1] 0.024 | dasatinib 0 | [2] -0.018 | [3] 0.082 | quisinostat -0.083 | tipifarnib 0.112 | [4] 0.126 | [5] 0.006 | [6] -0.077 | [7] 0.053 | vorinostat 0.006 | silmitasertib 0.009 | [8] -0.151 | entospletinib 0.032

PSMD10 (UniProt O75832)
inactive: nilotinib 0.018 | [1] -0.033 | dasatinib -0.023 | [2] -0.001 | [3] -0.067 | quisinostat 0.015 | tipifarnib 0.002 | [4] 0.027 | [5] -0.017 | [6] -0.035 | [7] -0.035 | vorinostat 0.03 | silmitasertib -0.032 | [8] 0.032 | entospletinib 0.003
